From PubChem BioAssay AID1259354 (Paczesny and Yang Labs, IUPUI and University of Michigan, 2018)
In all, about 78,000 compounds went through this assay and about 1,800 (2.3%) were called active. The shares of active, inactive and inconclusive entries below differ from those in the screen. Cut-off read from the data, not from the text of the source: active = inhibition above about 30%; inconclusive = mostly about 10% to 28%; inactive = weaker than that.

By UniProt entry, the sequences of proteins in these tests, tags left out. Where a name states a change or a piece, a line headed by the entry shows the natural chain unless it says otherwise.
UniProt Q01638: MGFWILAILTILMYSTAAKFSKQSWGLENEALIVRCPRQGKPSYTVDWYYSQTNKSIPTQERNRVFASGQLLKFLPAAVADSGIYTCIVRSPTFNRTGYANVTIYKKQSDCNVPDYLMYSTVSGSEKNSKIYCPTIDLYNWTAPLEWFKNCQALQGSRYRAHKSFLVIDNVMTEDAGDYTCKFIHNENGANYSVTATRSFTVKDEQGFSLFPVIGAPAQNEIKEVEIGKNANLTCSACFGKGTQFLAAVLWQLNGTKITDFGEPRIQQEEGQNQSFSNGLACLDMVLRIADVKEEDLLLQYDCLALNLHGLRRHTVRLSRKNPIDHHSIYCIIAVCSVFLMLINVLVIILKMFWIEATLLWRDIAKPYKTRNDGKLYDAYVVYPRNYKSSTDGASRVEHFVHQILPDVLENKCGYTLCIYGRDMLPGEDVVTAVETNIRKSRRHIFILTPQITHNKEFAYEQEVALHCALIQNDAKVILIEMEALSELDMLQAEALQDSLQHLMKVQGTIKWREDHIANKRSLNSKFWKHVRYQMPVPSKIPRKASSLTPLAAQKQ

molecular target: Interleukin-1 receptor-like 1 (Homo sapiens) (UniProt Q01638); test: blocks human ST2 binding to IL-33, primary screen, biochemical, AlphaLISA (AID 1259354); details: AlphaLISA ST2-Fc/biotin-IL-33 interaction, 1 h; at 17 µM, active compounds read high

SMILES	inhibition
CCOC(=O)c1c(-c2ccccc2)csc1NC(=O)c1noc2c1CCCC2	inactive
C/C(=N/OC(=O)c1cccc([N+](=O)[O-])c1)c1cccs1	inconclusive: 14%
COCc1cc(C)nc2sc3c(c12)NC(c1ccco1)N(Cc1ccccc1)C3=O (configuration not stated)	inconclusive: 17%
CCCCc1nc2sc3c(NCCN4CCOCC4)ncnc3c2c2c1COC(C)(C)C2	inconclusive: 17%
CCCS(=O)(=O)N1CCN(c2nc(C)cc(N(C)C)n2)CC1	inactive
O=C(NC1CC1)c1ccc(Cl)cc1[N+](=O)[O-]	inconclusive: 19%
O=C(Nc1cccnc1)c1cc(C2CC2)on1	inconclusive: 13%
NS(=O)(=O)c1ccc(N=C2NC(=O)/C(=C\c3ccccc3)S2)cc1	inconclusive: 16%
CC(=O)Nc1ccc(C(=O)NCCCSc2nnc(C)s2)cn1	inactive
CC(C)=C1[C@H]2CC[C@@H]1C(C(=O)O)[C@@H]2C(=O)NCc1ccc(Cl)cc1 (some centres not stated)	inactive
COCC(C)(C)CNC(=O)c1c(C)nn(C)c1C	inconclusive: 14%
CCC(Sc1nncn1C)C(=O)Nc1nc(-c2ccccc2)cs1 (configuration not stated)	inactive
COc1ccc(C(=O)Nc2ccc3nc(N4CCN(C)CC4)cc(C)c3c2)c(OC)c1	inconclusive: 10%
COc1ccc(NC(C)(C)C(=O)NCc2ccc3[nH]c(C)c(C)c3c2)cc1	inconclusive: 15%
COc1cc([N+](=O)[O-])ccc1NC(=O)c1cc(Br)ccc1OC	inactive
COc1cc(OC)c(NC(=O)C2c3ccccc3C(=O)N3CCc4ccccc4C23)cc1Cl (configuration not stated)	inconclusive: 14%
O=C1[C@@H]2[C@H](C(=O)N1c1ccccc1Cl)[C@H]1C=C[C@@H]2C1	inconclusive: 15%
CCCn1ccnc1CN1CCN(c2ncccc2C)CC1	inconclusive: 20%
O=C(NC1CCCCC1)c1ccccc1S(=O)O	inactive
COC(=O)[C@@H](C)NC(=O)[C@H]1CN(C(=O)c2cccnc2)CCN1C(=O)C1CCCCC1	inconclusive: 21%
Cc1ccccc1CN1CCN(CC(=O)Nc2ccc(F)cc2)S1(=O)=O	inactive
Cc1ccc(C(=O)/C=C/C=C/C=C/N(C)C)o1	active: 39%
COCCN(Cc1cccs1)C(=O)C(=O)Nc1ccc(C)cc1	inconclusive: 19%
CSc1nc2c(c(=O)[nH]1)C(c1cccnc1)C1=C(CCCC1=O)N2 (configuration not stated)	inactive
COc1ccc(Cn2c(SCC#N)nc3c(sc4cccc(F)c43)c2=O)cc1	inactive
CCCn1c2ccccc2c2nnc(SCC(=O)Nc3ccc(OC)cc3)nc21	inconclusive: 16%
O=C(c1ccc([N+](=O)[O-])cc1)N1CCN(c2ccccc2F)CC1	inactive

Molecules shown so far that contain a furan ring, fused or not, in the order listed:
SMILES	inhibition
COCc1cc(C)nc2sc3c(c12)NC(c1ccco1)N(Cc1ccccc1)C3=O (configuration not stated)	inconclusive: 17%
Cc1ccc(C(=O)/C=C/C=C/C=C/N(C)C)o1	active: 39%
